Measurements taken from the supplement of paper PMC10849652.
The list shows a part of the results. Residues, ends and D or L forms follow the SMILES beside them. *: point of attachment. Cbz = O=C(OCc1ccccc1)*

Protein sequences, listed by entry. Tags and fused reporters are not part of them. Lines headed by an entry give the natural chain unless they say otherwise; changes in a name come on top.
UniProt O00584, whole entry, looked up: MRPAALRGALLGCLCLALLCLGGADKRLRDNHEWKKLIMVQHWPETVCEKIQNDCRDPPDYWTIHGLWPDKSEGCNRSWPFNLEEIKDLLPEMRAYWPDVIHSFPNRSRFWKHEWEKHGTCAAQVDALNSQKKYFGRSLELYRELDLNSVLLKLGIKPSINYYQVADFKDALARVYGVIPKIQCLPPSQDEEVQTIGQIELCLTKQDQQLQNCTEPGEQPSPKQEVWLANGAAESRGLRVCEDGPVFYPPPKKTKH
UniProt Q14498: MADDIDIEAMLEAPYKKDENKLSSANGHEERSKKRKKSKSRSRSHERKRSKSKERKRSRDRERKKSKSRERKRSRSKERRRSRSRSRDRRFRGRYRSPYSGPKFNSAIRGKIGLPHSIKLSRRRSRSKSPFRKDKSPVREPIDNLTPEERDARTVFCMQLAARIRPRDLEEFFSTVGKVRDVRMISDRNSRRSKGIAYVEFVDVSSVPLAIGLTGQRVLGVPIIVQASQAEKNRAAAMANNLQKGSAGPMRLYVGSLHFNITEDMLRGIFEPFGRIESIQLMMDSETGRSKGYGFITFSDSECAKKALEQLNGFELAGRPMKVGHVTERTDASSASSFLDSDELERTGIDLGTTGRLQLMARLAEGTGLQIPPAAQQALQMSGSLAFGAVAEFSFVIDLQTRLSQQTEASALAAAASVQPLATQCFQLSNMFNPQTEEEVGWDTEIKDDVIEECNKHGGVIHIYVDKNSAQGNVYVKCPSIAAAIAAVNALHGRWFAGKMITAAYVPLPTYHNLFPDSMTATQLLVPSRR
UniProt Q5VTB9: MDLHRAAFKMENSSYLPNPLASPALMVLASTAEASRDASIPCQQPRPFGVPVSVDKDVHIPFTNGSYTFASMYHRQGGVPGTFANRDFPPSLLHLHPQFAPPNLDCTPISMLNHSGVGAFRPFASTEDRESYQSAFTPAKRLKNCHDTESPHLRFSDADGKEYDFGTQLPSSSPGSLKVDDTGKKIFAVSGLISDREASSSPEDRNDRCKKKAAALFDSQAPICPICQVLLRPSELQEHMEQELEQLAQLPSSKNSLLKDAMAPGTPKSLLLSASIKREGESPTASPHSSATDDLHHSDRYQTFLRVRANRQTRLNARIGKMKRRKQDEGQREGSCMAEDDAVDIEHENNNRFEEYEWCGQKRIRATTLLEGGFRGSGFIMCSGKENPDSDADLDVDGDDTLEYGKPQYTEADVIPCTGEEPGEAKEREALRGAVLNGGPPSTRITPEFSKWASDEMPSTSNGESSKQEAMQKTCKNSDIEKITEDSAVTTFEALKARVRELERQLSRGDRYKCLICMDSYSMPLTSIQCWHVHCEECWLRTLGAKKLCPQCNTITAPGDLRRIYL
UniProt P48382: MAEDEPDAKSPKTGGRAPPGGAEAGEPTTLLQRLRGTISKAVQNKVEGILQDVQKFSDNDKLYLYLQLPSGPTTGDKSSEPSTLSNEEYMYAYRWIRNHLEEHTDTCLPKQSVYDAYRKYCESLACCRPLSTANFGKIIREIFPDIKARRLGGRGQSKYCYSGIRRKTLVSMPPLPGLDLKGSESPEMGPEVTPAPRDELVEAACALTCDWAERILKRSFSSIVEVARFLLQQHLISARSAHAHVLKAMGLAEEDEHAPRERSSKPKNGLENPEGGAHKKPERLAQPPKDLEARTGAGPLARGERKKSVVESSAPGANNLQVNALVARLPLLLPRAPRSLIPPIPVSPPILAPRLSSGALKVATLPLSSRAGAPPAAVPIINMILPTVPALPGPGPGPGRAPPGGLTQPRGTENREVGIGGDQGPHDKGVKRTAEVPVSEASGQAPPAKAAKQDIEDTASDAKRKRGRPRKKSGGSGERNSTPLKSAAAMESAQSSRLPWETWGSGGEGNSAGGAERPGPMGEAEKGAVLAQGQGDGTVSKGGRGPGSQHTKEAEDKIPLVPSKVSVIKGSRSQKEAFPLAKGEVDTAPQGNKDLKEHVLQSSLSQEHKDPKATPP
UniProt Q02094: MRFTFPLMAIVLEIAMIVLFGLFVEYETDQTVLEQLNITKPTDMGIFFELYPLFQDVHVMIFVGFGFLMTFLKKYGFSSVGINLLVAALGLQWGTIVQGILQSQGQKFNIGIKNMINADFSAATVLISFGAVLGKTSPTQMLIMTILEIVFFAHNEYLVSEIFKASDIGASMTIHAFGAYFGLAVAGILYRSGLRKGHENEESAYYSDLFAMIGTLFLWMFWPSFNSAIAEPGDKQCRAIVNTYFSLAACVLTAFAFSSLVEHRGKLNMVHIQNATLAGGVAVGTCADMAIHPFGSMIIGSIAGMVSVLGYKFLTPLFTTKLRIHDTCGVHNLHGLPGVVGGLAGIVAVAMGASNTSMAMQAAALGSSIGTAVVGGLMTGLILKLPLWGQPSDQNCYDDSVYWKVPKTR
UniProt Q9H920: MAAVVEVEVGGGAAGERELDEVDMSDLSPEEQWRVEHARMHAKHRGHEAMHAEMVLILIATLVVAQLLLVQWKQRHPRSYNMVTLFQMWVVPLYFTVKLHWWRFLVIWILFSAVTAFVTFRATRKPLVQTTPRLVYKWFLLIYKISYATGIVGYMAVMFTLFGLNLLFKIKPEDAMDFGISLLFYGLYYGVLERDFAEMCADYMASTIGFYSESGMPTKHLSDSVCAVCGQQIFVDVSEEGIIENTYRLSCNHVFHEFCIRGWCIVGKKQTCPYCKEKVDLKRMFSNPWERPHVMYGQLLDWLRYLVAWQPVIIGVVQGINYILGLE
UniProt Q8TC12: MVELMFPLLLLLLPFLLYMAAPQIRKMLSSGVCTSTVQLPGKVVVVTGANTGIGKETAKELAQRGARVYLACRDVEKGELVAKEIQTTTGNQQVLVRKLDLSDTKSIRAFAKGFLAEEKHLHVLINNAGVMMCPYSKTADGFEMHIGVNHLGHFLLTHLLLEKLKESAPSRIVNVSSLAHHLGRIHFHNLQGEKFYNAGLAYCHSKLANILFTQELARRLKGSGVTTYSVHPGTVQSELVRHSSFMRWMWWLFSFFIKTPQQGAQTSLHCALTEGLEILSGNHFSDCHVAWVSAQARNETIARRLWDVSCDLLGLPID
UniProt O43353, whole entry, looked up: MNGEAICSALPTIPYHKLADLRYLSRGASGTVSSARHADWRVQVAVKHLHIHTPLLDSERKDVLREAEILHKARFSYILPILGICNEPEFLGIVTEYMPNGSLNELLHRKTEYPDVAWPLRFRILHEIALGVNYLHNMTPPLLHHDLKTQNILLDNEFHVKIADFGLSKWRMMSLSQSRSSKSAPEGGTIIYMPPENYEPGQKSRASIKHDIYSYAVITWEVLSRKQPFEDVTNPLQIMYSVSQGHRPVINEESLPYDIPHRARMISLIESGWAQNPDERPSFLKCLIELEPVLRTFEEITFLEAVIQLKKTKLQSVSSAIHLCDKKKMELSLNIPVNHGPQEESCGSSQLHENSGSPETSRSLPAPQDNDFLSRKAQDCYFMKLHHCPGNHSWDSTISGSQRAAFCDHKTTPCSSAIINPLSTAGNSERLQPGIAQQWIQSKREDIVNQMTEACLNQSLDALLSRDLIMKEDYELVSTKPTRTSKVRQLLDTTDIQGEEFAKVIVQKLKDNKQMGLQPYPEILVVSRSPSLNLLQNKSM

Assays:
Test in all cases: log2 fold change, soluble protein after heating vs DMSO (PISA); higher = thermal stabilisation; K562 cells, 10 uM, 30 min; active = over 0.2 and 3.5 SD of the protein, either way, in both replicates (recomputed)
IRAK-1-4 Inhibitor I = compound: C1COCCN1CCN2C3=CC=CC=C3N=C2NC(=O)C4=CC(=CC=C4)[N+](=O)[O-] [IRAK-1-4 Inhibitor I]
Summary of the method: (§1)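 K562 cells at 2×10^6 cells/mL were treated for 30 min with 10 μM compound, and aliquots were heated for 3 min over 48°C-58°C before pooling. Extraction used PBS with 0.5% NP-40 at 4°C, and soluble protein was the supernatant after 21,000xg for 90 min, measured by TMTpro 16plex LC-MS/MS with channel sums equalised. Thermal stability values, relative to control samples and from duplicates, are log2 fold changes.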

ibrutinib = compound: C=CC(=O)N1CCC[C@@H](n2nc(-c3ccc(Oc4ccccc4)cc3)c3c(N)ncnc32)C1 [ibrutinib]
Summary of the method: as §1

[1] = compound: CC(=O)c1cnc2ccc(-c3cc(Cl)c(O)c(Cl)c3)nc2c1N[C@H]1CC[C@H](CN(C)C)CC1
Summary of the method: as §1

ralimetinib = compound: CC(C)(C)Cn1c(N)nc2ccc(-c3[nH]c(C(C)(C)C)nc3-c3ccc(F)cc3)nc21 [ralimetinib]
Summary of the method: as §1

[2] = compound: CC(C)(O)CC(=O)NCCn1ccc2ncnc(Nc3ccc(Oc4cccc(C(F)(F)F)c4)c(Cl)c3)c21
Summary of the method: as §1

[3] = compound: CC(C)C1=C2N=C(C=C(N2N=C1)NCC3=CC=CC=C3)NCCCCCCN
Summary of the method: as §1

[4] = compound: CC(C)C[C@@H](C=O)NC(=O)[C@H](CC(C)C)NC(=O)[C@H](CC(C)C)NC(=O)OCc1ccccc1
Summary of the method: as §1

pinometostat = compound: CC(C)N(C[C@H]1O[C@@H](n2cnc3c(N)ncnc32)[C@H](O)[C@@H]1O)[C@H]1C[C@@H](CCc2nc3cc(C(C)(C)C)ccc3[nH]2)C1 [pinometostat]
Summary of the method: as §1

[5] = compound: CC1=C(C2=C(C=C1)C(=O)C3=CC=CC=C3N2CCCN)C
Summary of the method: as §1

[6] = compound: CC1=C(C=C(C=C1)NC(=O)C2=CC(=CC=C2)C(C)(C)C#N)NC3=CC4=C(C=C3)N=CN(C4=O)C
Summary of the method: as §1

[7] = compound: CC1=C(C=C(C=C1)NC(=O)C2=CC(=CC=C2)N(C)C)NC(=O)C3=CC=C(C=C3)O
Summary of the method: as §1

[8] = compound: CC1=CC=C(C=C1)SC2=C3C=C(SC3=CN=C2)C(=O)N
Summary of the method: as §1

[9] = compound: CC1=NC(=CC=C1)C2=C(N=C(N2)C(C)(C)C)C3=CC4=NC=CN=C4C=C3
Summary of the method: as §1

Nexturastat A = compound: CCCCN(Cc1ccc(C(=O)NO)cc1)C(=O)Nc1ccccc1 [Nexturastat A]
Summary of the method: as §1

vemurafenib = compound: CCCS(=O)(=O)Nc1ccc(F)c(C(=O)c2c[nH]c3ncc(-c4ccc(Cl)cc4)cc23)c1F [vemurafenib]
Summary of the method: as §1

[10] = compound: CCCS(=O)(=O)Nc1ccc(F)c(C(=O)c2c[nH]c3ncc(Cl)cc23)c1F
Summary of the method: as §1

[11] = compound: CCCc1cc(C)[nH]c(=O)c1CNC(=O)c1cc(-c2ccnc(N3CCN(C)CC3)c2)cc2c1cnn2C(C)C
Summary of the method: as §1

givinostat = compound: CCN(CC)Cc1ccc2cc(COC(=O)Nc3ccc(C(=O)NO)cc3)ccc2c1 [givinostat]
Summary of the method: as §1

barasertib = compound: CCN(CCCOc1ccc2c(Nc3cc(CC(=O)Nc4cccc(F)c4)[nH]n3)ncnc2c1)CCOP(=O)(O)O [barasertib]
Summary of the method: as §1

[12] = compound: CC1=C(C(CC(=O)N1)C2=CC=C(C=C2)C(F)(F)F)C(=O)NC3=C(C=C4C(=C3)C=NN4)F
Summary of the method: as §1

Measured: log2 fold change

RHEB (UniProt Q15382)
active: Nexturastat A -0.277
inactive: IRAK-1-4 Inhibitor I 0.006 | ibrutinib -0.016 | [1] -0.04 | ralimetinib -0.112 | [2] -0.01 | [3] 0.027 | [4] -0.055 | pinometostat -0.035 | [5] 0.093 | [6] 0.008 | [7] -0.002 | [8] 0.008 | [9] 0.052 | vemurafenib -0.004 | [10] 0.021 | [11] -0.026 | givinostat -0.009 | barasertib 0.014

RNASET2 (UniProt O00584)
inactive: IRAK-1-4 Inhibitor I 0.028 | ibrutinib 0.042 | [1] 0 | ralimetinib -0.082 | [2] 0.029 | [3] -0.206 | [4] -0.004 | pinometostat -0.014 | [5] -0.061 | [6] 0.007 | [7] 0.026 | [8] 0.033 | [9] 0.027 | Nexturastat A -0.079 | vemurafenib -0.019 | [10] 0.004 | [11] 0.001 | givinostat -0.006 | barasertib -0.013

RBM39 (UniProt Q14498)
active: [1] -0.497
inactive: IRAK-1-4 Inhibitor I -0.193 | ibrutinib 0 | ralimetinib 0.044 | [2] -0.028 | [3] -0.267 | [4] 0.043 | pinometostat 0.042 | [5] 0.104 | [6] -0.035 | [7] 0 | [8] -0.011 | [9] 0.071 | Nexturastat A 0.043 | vemurafenib 0.084 | [10] 0.083 | [11] 0.034 | givinostat 0.131 | barasertib 0.012

RNF220 (UniProt Q5VTB9)
inactive: IRAK-1-4 Inhibitor I 0.017 | ibrutinib -0.032 | [1] -0.02 | ralimetinib -0.045 | [2] 0.021 | [3] -0.011 | [4] -0.046 | pinometostat -0.076 | [5] 0.004 | [6] -0.01 | [7] -0.086 | [8] 0.008 | [9] 0.047 | Nexturastat A 0.008 | vemurafenib -0.001 | [10] -0.001 | [11] -0.023 | givinostat 0.038 | barasertib 0.016

RFX5 (UniProt P48382)
inactive: IRAK-1-4 Inhibitor I 0.027 | ibrutinib 0.017 | [1] 0.105 | ralimetinib 0.147 | [2] 0.366 | [3] -0.076 | [4] 0.016 | pinometostat 0.066 | [12] -0.016 | [6] 0.04 | [7] 0.018 | [8] 0.073 | [9] 0.017 | Nexturastat A -0.067 | [10] -0.047 | givinostat 0.077 | barasertib 0.19

RHAG (UniProt Q02094)
inactive: IRAK-1-4 Inhibitor I -0.005 | ibrutinib 0.026 | [1] -0.019 | ralimetinib -0.113 | [2] -0.099 | [3] -0.297 | [4] -0.043 | pinometostat -0.038 | [12] -0.027 | [5] -0.016 | [6] 0.174 | [7] -0.009 | [8] 0.05 | [9] 0.195 | Nexturastat A 0.001 | vemurafenib 0.073 | [10] 0.192 | [11] -0.326 | givinostat 0.054 | barasertib -0.06

RNF121 (UniProt Q9H920)
inactive: IRAK-1-4 Inhibitor I 0.137 | ibrutinib -0.031 | [1] 0.035 | ralimetinib -0.01 | [2] 0.126 | [3] -0.071 | [4] 0.07 | pinometostat -0.114 | [12] 0.122 | [5] 0.01 | [6] -0.06 | [7] -0.098 | [8] -0.02 | [9] 0.034 | Nexturastat A -0.008 | vemurafenib 0.059 | [10] 0 | [11] 0.038 | givinostat -0.072 | barasertib -0.054

RDH11 (UniProt Q8TC12)
inactive: IRAK-1-4 Inhibitor I 0.032 | ibrutinib 0.067 | [1] -0.145 | ralimetinib 0.059 | [2] -0.126 | [4] 0.117 | pinometostat 0.013 | [5] 0.103 | [6] 0.068 | [7] -0.054 | [8] 0.019 | [9] -0.016 | Nexturastat A 0.011 | vemurafenib 0.042 | [10] 0.035 | [11] 0.007 | givinostat 0.066 | barasertib 0.057
active: [3] -0.74

RIPK2 (UniProt O43353)
inactive: IRAK-1-4 Inhibitor I 0.056 | ibrutinib 0.102 | [1] -0.154 | ralimetinib -0.035 | [2] 0.066 | [3] 0.037 | [4] 0 | pinometostat 0.003 | [12] 0.002 | [5] 0.013 | [6] -0.118 | [7] 0.078 | [8] 0.01 | [9] 0.086 | Nexturastat A 0.021 | vemurafenib 0.119 | [10] 0.059 | [11] 0.016 | givinostat -0.048 | barasertib 0.009
